Data published in patent US20240200147A1, “Non-Small Cell Lung Cancer Diagnosis and Treatment” (West Virginia University Board of Governors on Behalf of …, priority 2022, published 2024).
At least one compound was matched to its structure with a doubt left.

Experiments:
NSCLC = settings: combination of trametinib and bosutinib; cited from earlier work
CCLE NSCLC cell lines = assay: Average IC50 and EC50 of selected compounds in PRISM drug screening data; type: cell-based, human
Description: The drug sensitivity data of human NSCLC cell lines were taken from multiple resources. The secondary PRISM repurposing dataset was obtained from the DepMap release 19Q4. […] A total of 64 NSCLC cell lines from GDSC1 and 58 NSCLC cell lines from GDSC2 were included in this study. Details of the categorization of drug sensitivity in each cell line were included in our previous publications.

[1] = test system: late-stage, metastatic, Kras-mutant NSCLC; settings: compared with various combination therapies, chemo-, and immune therapy; cited from earlier work
[2] = test system: advanced, platinum-pretreated NSCLC; settings: subset of patients; phase II; cited from earlier work

SMILES: COc1cc(Nc2c(C#N)cnc3cc(OCCCN4CCN(C)CC4)c(OC)cc23)c(Cl)cc1Cl [bosutinib]
- growth of NSCLC (NSCLC): synergistically suppress

SMILES: Cc1nc(Nc2ncc(C(=O)Nc3c(C)cccc3Cl)s2)cc(N2CCN(CCO)CC2)n1 [dasatinib]
- average IC50 and EC50 values (in words) (CCLE NSCLC cell lines): small

SMILES: Cn1cnc2c(F)c(Nc3ccc(Br)cc3Cl)c(C(=O)NOCCO)cc21 [selumetinib]
- efficacy in treating NSCLC [1]: does not have superior efficacy

SMILES: CN1CCN(CCOc2cc(OC3CCOCC3)c3c(Nc4c(Cl)ccc5c4OCO5)ncnc3c2)CC1 [saracatinib]
- progression-free survival [2]: improved
